# Measured data: PubChem BioAssay AID1259405 (NCATS, 2018)
# Purpose: 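Knock-downs that lift recombinant protein yield in hamster ovary cells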 (primary screen)
# System: Chinese hamster CHO-K1 ovary cells with stable secreted eGFP expression
# Reagent: single siRNA against mouse genes, 0.8 pmol siRNA per well (2 µl of 400 nM stock)
# Time to read-out: 3 days
# Detection: 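Per-well intracellular GFP measured by laser scanning cytometry, plus viability from ATP luminescence, each relative to plate median of non-targeting control wells, in %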
# Direction: GFP, % of control: higher = more GFP per well, higher productivity; viability (ATP), % of control: higher = more viable cells (more ATP)
# Call rule: 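a knock-down is called active if GFP reaches 120% or more of non-targeting control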
# The deposit covers about 50,000 reagents; shown is a random part of them. About 4,000 of them (8%) count as active. 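Mouse siRNA library applied to hamster cells; one well for each siRNA.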 Reagents against one gene are numbered here. No sequences are given here.
Gene,reagent no.,"GFP, % of control","viability (ATP), % of control",Outcome
Mrps2,1,67,72.9,inactive
Mrps2,2,56,51.8,inactive
Mrps2,3,80.9,67.2,inactive
Rhoa,1,68.2,90.8,inactive
Rhoa,2,97.4,105,inactive
Rhoa,3,51.8,82.3,inactive
Pde6c,1,108,79.2,inactive
Pde6c,2,91.6,75.7,inactive
Pde6c,3,53.9,90.5,inactive
Herc4,1,55.5,89.2,inactive
Herc4,2,88.3,95.2,inactive
Herc4,3,31.2,41.5,inactive
Sgsm1,1,102,79.8,inactive
Sgsm1,2,73.3,82.7,inactive
Sgsm1,3,24.8,21.5,inactive

Single entries from the entries so far.
Under “viability (ATP), % of control”, Pde6c #3 reads 90.5
Rhoa #3, GFP, % of control: 51.8
Under “viability (ATP), % of control”, Pde6c #1 is entered as 79.2
Entry for Herc4 #3 under “GFP, % of control”: 31.2
For “viability (ATP), % of control”, Pde6c #2 reads 75.7

More reagents follow:
Gene,reagent no.,"GFP, % of control","viability (ATP), % of control",Outcome
Cd99l2,1,71.1,73.2,inactive
Cd99l2,2,44.6,53.8,inactive
Cd99l2,3,117,107,inactive
Tat,1,86.8,102,inactive
Tat,2,88.3,75.1,inactive
Tat,3,91.2,109,inactive
Or4p20,1,162,72.9,active
Or4p20,2,83.6,85.7,inactive
Or4p20,3,63.9,89.9,inactive
Mblac2,1,69.8,64,inactive
Mblac2,2,76.9,76.2,inactive
Mblac2,3,48.5,59.8,inactive
Pgm5,1,70.9,111,inactive
Pgm5,2,190,106,active
Pgm5,3,50.9,65.4,inactive
Tceanc2,1,93.4,55.3,inactive
Tceanc2,2,31.4,24.3,inactive
Tceanc2,3,147,114,active
Tceanc2,4,58.9,65.5,inactive
Tceanc2,5,65.9,91.6,inactive
Tceanc2,6,141,150,active
